# From PubChem BioAssay AID1508600 (Functional Genomics Laboratory (NCATS/FGL), 2020)
# Hit rate of the full screen: of about 53,000 sequences, about 3,700 (7%) were called active.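 The calls were made as follows: active = gene knockdowns whose robust z-score for IL-1 alpha signal is at least 2 or at most -2, so actives lie on both sides; inactive = the rest.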 Some of the results follow.
# Assay: Components of the Cytosolic LPS Sensing Pathway: Gene Identification via Genome-wide siRNA Screen;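 also: robust z of the log signal after scaling to non-targeting control siRNA wells of the plate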
# Settings: RAW264.7 macrophages, IL-1a HTRF, actives lie on both sides, screened at 100 nM (by protocol), cells primed 5 h with Pam3CSK4 first
# In short: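 Cells (RAW264.7, 1×10^4 per well) were transfected with siRNA at 100 nM and cultured 48h at 37 degrees C. Pam3CSK4 was added for 5 hours; LipidA transfection followed for 24 hour. IL-1a was then measured by HTRF.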
row,Sequence,z-score
1,GGCAAUUGUGUAUCAAUAUTT against Acadl,inactive: -0.578
2,GGAAGAUGACAGUGCUGUATT against Utp25,inactive: -0.868
3,GGUUCACUCUGAAGACACCTT against Pkig,inactive: 0.0516
4,CCCUAGAAGAAUCAAGCUCTT against Prune2,inactive: -1.35
5,GGACUUUGCCAUUCUUCACTT against Krtap6-1,inactive: -0.567
6,GGGACACAAUUCUUUGAAATT against Vash1,inactive: -1.69
7,GCGACACAUUCGAUCUCAGTT against Mecom,active: 4.11
8,GGCAUUCUGAAAAAAUAGCTT against Rb1cc1,inactive: -1.55
9,GGCUACACAAGAAGAUUCUTT against Tsks,inactive: 0.737
10,CCAGUGUGGAGGAAAGUACTT against Nrsn2,inactive: -0.752
11,GGUGUCAUCCCUGAAAGAGTT against Tert,inactive: 0.0314
12,GGUAGACCCUUUUUUUAAGTT against Tgm4,inactive: 0.432
13,GGUAAUUACUUUCAUAAGGTT against Txnrd1,inactive: -0.264
14,GGUAGUUUCUGGACAAAAGTT against Cip2a,inactive: 0.85
15,GGUUAGAAAACAAUAUCAGTT against 9530053A07Rik,inactive: 0.88
16,GCAACUUACUGGUAACUCCTT against Slc7a11,inactive: 0.829
17,GGCAAUGGUUCAGGAGAAATT against Col25a1,inactive: 0.232
18,GGAUUUGUUAAAGAUUCCGTT against Cpd,inactive: 0.792
19,GGUCAUCUGCCACAUGGCATT against Tex19.2,inactive: 1.57
20,GGAACACUACCGUUUUGGGTT against Ehd2,active: 2.55
21,GGAGCAAAGGAACAUGAAGTT against Slc12a6,inactive: 1.01
22,GGUGGUAGCUUUGUACUUUTT against Nxnl2,inactive: 0.829

row,Sequence,z-score
1,GGAGGAAAAUGUCCUUGUUTT against Pth,inactive: 0.25
2,GGAAGAACGAAAAUAUCUGTT against Spata1,inactive: -1.12
3,GGAAAGGUCAAGAGAAUUUTT against Strn3,inactive: -1.16
4,CCGAGUGCCGACAAAGUGATT against Ccdc22,inactive: 1.6
5,GGCCAACCUAAGUCUCAUATT against B830017H08Rik,inactive: -1.16
6,GGAUGUGUCGGGAAAUGCUTT against Frmd5,inactive: -1.7
7,GGCUAUUUUGGGACGGCUUTT against Slc16a14,inactive: -0.449
8,GGCGUGUAUGUCAAAAAUATT against Grip1,inactive: -0.201
9,GGCCUUUAUUCUAUGCAGUTT against Htr3a,inactive: 1.59
10,CCAUUUGGCUCACAGUACGTT against Rbck1,inactive: -0.449
11,GGGAUUCUGCUGGCUAUGATT against Olfr641,inactive: 1.93
12,GGUAGAUAAUGAAGACAUCTT against Frk,inactive: 0.302
13,GGAAGUGCUAAAGAAGUACTT against Dtx4,inactive: -1.12
14,GGACUUUCUAAGGGUAAAATT against Luzp1,inactive: -0.0646
15,CGCUGAAGUCUUUUCACAATT against Baiap2,inactive: 0.286
16,GGUUUUACCAGAAAUUCAGTT against Lactb2,inactive: 1.09
17,UGUCCAACAAGCUCUGUACTT against Olfr202,inactive: -0.156
18,CCACCGUUGUGGAAGAAUCTT against Apol10b,inactive: 0.296
19,CCUGUUCACAACUUUCCUATT against Olfr1241,inactive: 0.895
20,GGACAGAUAGUGAAAGAUATT against Tmem130,inactive: -1.95
21,CCAAUUGAGGCUGACGUGATT against Dld,inactive: 0.182
22,CCAUCUCAGGUGCAAUUUGTT against Ttc6,inactive: -0.67

row,Sequence,z-score
1,GCUUUACUCCCUAAAUUCATT against Dmrt3,inactive: 0.755
2,GGCAAGUUAAGGUAUAUGGTT against Efl1,inactive: -0.153
3,GGUCUUGACACUUCAAAGATT against Plin4,inactive: 0.36
4,GGAUUUUUCCAUAAAAACCTT against B3galnt1,inactive: 1.04
5,GGACUUCAGCAACUAUAGUTT against Ggt7,inactive: -0.631
6,CCAUUGGUUAGUGAAGAUUTT against Tmprss11c,inactive: -1.86
7,GGUGGAAAUUCCUUAAAUATT against Herc2,inactive: -0.626
8,GGGAAAGAGUUUUACAAACTT against Ttc22,active: 2.74
9,CCAUAGGAGAUCUGUUUUATT against Ripk4,inactive: 0.321
10,GGCUUACUAACAGUUUUUGTT against Gem,inactive: -0.29
11,CUACACUCUCAUUAUGAACTT against Olfr138,inactive: 1.16
12,CGAGUUUGACCGGACCAUCTT against Ssna1,active: 2.44
13,GCUGCACGCACUGAUCAAGTT against Tjap1,inactive: 1.02
14,GGUUUUUCGUUUCAAUGUGTT against Tgfb3,inactive: 0.109
15,GGAAGAACAAAUAGGUCGATT against Defb14,inactive: 0.21
16,GCACGCUAUUGGCUAUGAGTT against BC052040,inactive: -0.0182
17,UGCUGUUGGAGAGCAAAUATT against Slpi,inactive: -0.8
18,GUUCCCAUGUUCUUGGUGUTT against Olfr203,inactive: -1.09
19,GGUUUCCAAACCCUUCACATT against Lor,inactive: -1.74
20,GGAAUCUUCUGAAUUGCCUTT against Cul7,inactive: 0.547
21,CGGGAAAUUCGUCUAUGUUTT against Arntl2,inactive: 0.342
22,GGCCAUCUUUAGACAUAUUTT against Serpinf2,inactive: 0.0944

row,Sequence,z-score
1,GGAUUCCACUCAAGUAUAATT against Gpr35,inactive: 1.42
2,GCUAAUCCUGACAUUUGGCTT against Crabp1,inactive: 0.34
3,GCUGUGCAGCCACAAGUGATT against Gpr142,active: 8.63
4,CCCUUGGCCUUCCAAAUUGTT against Psg21,inactive: -0.257
5,GGUUAUUUUCUUCAUGACUTT against Fbxl19,inactive: -1.3
6,CCUGACCAUGCUGUUAUAUTT against Dppa1,inactive: -0.0184
7,GGCAAGUUGACCGUGUUUUTT against Dtnb,inactive: -0.307
8,CGAGUUGUAACACAUCUUUTT against Ulk4,inactive: 0.603
9,GGAUCAAGUGGUCAAGGUATT against Ilvbl,inactive: 0.402
10,CGGGCAGCUAGAUUUCCAATT against S100a11,active: 2.86
11,CGGAGAACGACAUUUACAATT against Hnrnpf,inactive: 0.252
12,GGUGGAAUUGAAGAGUUCATT against Rcor3,inactive: 0.24
13,GGAAUCUCUUUUCUUGCAUTT against Strip1,inactive: -0.961
14,GGCUCCUGAAAGAACUGGATT against Actrt2,inactive: -0.134
15,GCAAAGGAUAUGCAAUUGGTT against Bap1,inactive: 0.257
16,GCUUAUCAGGGUACAGCUUTT against Ipo7,inactive: -0.06
17,GGUUCUUUCAGAGUUGGCCTT against Mrpl3,inactive: 0.64
18,GGAAGUCAGGUAGUAAAACTT against Arsk,inactive: -0.76
19,GGUAAACAUCACUCCUUGGTT against Actrt1,inactive: 0.528
20,GGAUGCUGACAAAAAUAUCTT against Iars,inactive: 0.447
21,GGCUGAAAAACUCAAUUAUTT against Boll,inactive: -0.813
22,GCUUAAGGGAUAACAUAUUTT against Svs2,inactive: -0.756

# In another format: results already given
row	Sequence	z-score
2	GGAAGAUGACAGUGCUGUATT against Utp25	inactive: -0.868
3	GGUUCACUCUGAAGACACCTT against Pkig	inactive: 0.0516
4	CCCUAGAAGAAUCAAGCUCTT against Prune2	inactive: -1.35
9	GGCUACACAAGAAGAUUCUTT against Tsks	inactive: 0.737
12	GGUAGACCCUUUUUUUAAGTT against Tgm4	inactive: 0.432
14	GGUAGUUUCUGGACAAAAGTT against Cip2a	inactive: 0.85
19	GGUCAUCUGCCACAUGGCATT against Tex19.2	inactive: 1.57
21	GGAGCAAAGGAACAUGAAGTT against Slc12a6	inactive: 1.01
22	GGUGGUAGCUUUGUACUUUTT against Nxnl2	inactive: 0.829
10	CCAUUUGGCUCACAGUACGTT against Rbck1	inactive: -0.449
12	GGUAGAUAAUGAAGACAUCTT against Frk	inactive: 0.302
14	GGACUUUCUAAGGGUAAAATT against Luzp1	inactive: -0.0646
16	GGUUUUACCAGAAAUUCAGTT against Lactb2	inactive: 1.09
20	GGACAGAUAGUGAAAGAUATT against Tmem130	inactive: -1.95
4	GGAUUUUUCCAUAAAAACCTT against B3galnt1	inactive: 1.04
7	GGUGGAAAUUCCUUAAAUATT against Herc2	inactive: -0.626
9	CCAUAGGAGAUCUGUUUUATT against Ripk4	inactive: 0.321
15	GGAAGAACAAAUAGGUCGATT against Defb14	inactive: 0.21
17	UGCUGUUGGAGAGCAAAUATT against Slpi	inactive: -0.8
21	CGGGAAAUUCGUCUAUGUUTT against Arntl2	inactive: 0.342
3	GCUGUGCAGCCACAAGUGATT against Gpr142	active: 8.63
4	CCCUUGGCCUUCCAAAUUGTT against Psg21	inactive: -0.257
5	GGUUAUUUUCUUCAUGACUTT against Fbxl19	inactive: -1.3
7	GGCAAGUUGACCGUGUUUUTT against Dtnb	inactive: -0.307
15	GCAAAGGAUAUGCAAUUGGTT against Bap1	inactive: 0.257
16	GCUUAUCAGGGUACAGCUUTT against Ipo7	inactive: -0.06
17	GGUUCUUUCAGAGUUGGCCTT against Mrpl3	inactive: 0.64
20	GGAUGCUGACAAAAAUAUCTT against Iars	inactive: 0.447

# Later entries

row,Sequence,z-score
1,GGAGAGCUAUCACAAAACATT against Olfr1018,inactive: 0.417
2,CGUGGACUCCGUUAUCAUUTT against Sidt1,inactive: -0.942
3,GCUGACAAGUGUAGCGUGUTT against Wtip,inactive: 0.387
4,GGACUGUGAUUGUUUCAGATT against Mep1a,inactive: -0.0817
5,CCUGAGGCUCUCAAAAACGTT against Matk,inactive: 0.266
6,GGGACCUAUUCUGUCACUGTT against Akip1,inactive: 0.28
7,GGAUGAAGAUGACUUUGAUTT against Hnrnpul1,inactive: -1.62
8,GCCGAUUCUUCAAUGUGCGTT against Ribc1,inactive: -0.242
9,GGCCUCCUAAAAUCACAGCTT against Zfp292,inactive: -0.723
10,AUAUUUCUGUCUUUCCUGGTT against Olfr1222,inactive: -0.54
11,GGUCAAGAACCUUUAACUGTT against Pabpc1,inactive: 0.648
12,GCCUAAAAAGAGUGGGUCATT against Mllt1,active: -2.73
13,CGAACUGGCAUUCACAUGUTT against Tas2r120,inactive: 0.543
14,GCAGUGUGAUAAAAGAGGATT against Hmbox1,inactive: -0.635
15,GGAUGAGGUGAACUGAGGGTT against Tmem150b,inactive: 0.777
16,CCCAGGUAGAUCCUAUCCUTT against Foxo4,inactive: -0.531
17,CCUAUAACCGGACUUAUGATT against Ctsf,inactive: -0.415
18,GCUCAUCUGUGAAUACAAUTT against Ubr7,inactive: 0.75
19,CGGUACAAGCUUGUGGAGCTT against Mmd2,inactive: 1.42
